Data published in patent publication US20050080054A1, “Treating androgen decline in aging male (ADAM)-associated conditions with SARMS” (priority 2002, published 2005).
At least one compound was matched to its structure with a doubt left.

Test system: female rats after ovariectomy
Assay: Bone mineral content (DEXA) in female rats after ovariectomy
Type: in vivo, rat
Conditions: given with Compound VI
Method: One hundred ten female rats were assigned to one of eleven treatment groups. Groups 1-8 were ovariectomized on day one of the study. Groups 9-11 were intact animals. Groups 1-6 received Compound VI by daily subcutaneous injection at doses of 0.1, 0.3, 0.5, 0.75, 1.0, and 3 mg/day, respectively. Groups 7 and 11 received dihydrotestosterone (DHT) at a dose of 1 mg/day. Groups 8 and 9 were ovariectomized and intact control groups, respectively. Group 10 received Compound VI at a dose of 1.0 mg/day. All animals were treated for 120 days. Bone mineral content (BMC) was determined using dual energy x-ray absorptiometry (DEXA) on days 1, 30, 60, 90, and 120.

CC(O)(CS(=O)(=O)c1ccc(F)cc1)C(=O)Nc1ccc(C#N)c(C(F)(F)F)c1 (centres unmarked) [bicalutamide, reference compound]
effect of the antiandrogen on the Compound VI effect on whole body BMC (FIG. 9): inhibited the effect of Compound VI
effect on the protective effect of Compound VI at L2-L4 vertebra and proximal femur (FIG. 10): abrogated the protective effect
